# Results taken from US8487001B2, “Medium-chain length fatty acids, glycerides and analogues as neutrophil survival and activation factors” (ProMetic BioSciences Inc., priority 2001, dated 2013).
# Key:
# bone marrow cells = experiment: In vivo chemoprotection: bone marrow cell count; conditions: mouse
# Method: (§1) To examine the immunoprotective effect of MCT or other compounds, mice were pre-treated orally at day-3, -2 and -1 or treated intravenously at day 0 with the test compound. Mice were sacrificed at day +5 by cardiac puncture and cervical dislocation. Then, cell suspensions were prepared from thymus, spleen and bone marrow as follow.
# (§2) Tissues were crushed in PBS buffer and contaminating erythrocytes were lysed in ACK buffer (155 mM NH4Cl, 12 mM NaHCO3, 0.1 mM EDTA, pH 7.3) for 5 minutes. Cells were then collected by centrifugation and washed three times in PBS and resuspended in tissue culture medium. Cells were counted on a hemacytometer.
# (§3) Chemoprotection studies were performed as described in example 16 except that mice were (post)-treated with MCT, sodium caprylate, sodium caprate or capric acid per o.s. on day 1, 2, 3 and 4.
# spleen cells = experiment: In vivo chemoprotection: spleen cell count; conditions: mouse
# Method: as §1, §2, §3
smiles,measurement,setting,value
"CCCCCCCCCC(=O)OCC(=O)N(C)C [capric acid N,N-dimethyl-acetamide, Capric Acid N,N-dimethylacetamide ester]",Bone Marrow # Cells (×10^6),bone marrow cells,37.4 ± 5.9 ×10^6
same,effect on bone marrow cell count compared to cyclophosphamide treated mice,bone marrow cells,significantly enhances the bone marrow cell count
same,effect on spleen cell count compared to cyclophosphamide treated mice,spleen cells,No significant effect
